Results are given in words; binding and its absence hold for the method and conditions named. Binding calls can cover weak binding; strength is not graded here. Where a sequence is shown, tags or fusion partners need not be part of it. For part of these data: Binding seen in cells or lysates may run through a third protein. Values belong to the molecule of their own block, whether it stands above or below them.
Tests used:
[1] = target: T1, HvANT1-BD (Hordeum vulgare L. var. nudum Hook. f. (Qingke)) (UniProt J7QK62); assay: two-hybrid; yeast strain AH109; pGBD-T7 (BD) and pGAD-T7 (AD) fusions; growth on SD-THA (SD/-Trp-His-Ade) medium supplemented with 40 mM 3-AT
T1 sequence: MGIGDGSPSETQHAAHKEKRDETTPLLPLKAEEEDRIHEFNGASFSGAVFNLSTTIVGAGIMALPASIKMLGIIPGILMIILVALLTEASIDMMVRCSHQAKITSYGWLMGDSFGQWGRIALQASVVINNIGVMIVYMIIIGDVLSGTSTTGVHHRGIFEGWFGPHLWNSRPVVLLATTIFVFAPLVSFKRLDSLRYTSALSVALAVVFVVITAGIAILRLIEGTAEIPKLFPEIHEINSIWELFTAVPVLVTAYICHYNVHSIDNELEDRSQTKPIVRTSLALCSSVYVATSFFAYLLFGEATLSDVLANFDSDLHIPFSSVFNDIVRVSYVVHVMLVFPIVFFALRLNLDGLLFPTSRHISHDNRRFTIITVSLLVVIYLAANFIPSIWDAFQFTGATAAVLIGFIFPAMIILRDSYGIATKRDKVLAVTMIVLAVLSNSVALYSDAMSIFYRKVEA

[2] = target: T2, HvANT1 fused with the N-terminal fragment of YFP (Hordeum vulgare L. var. nudum Hook. f. (Qingke)) (UniProt J7QK62); assay: split reporter; split YFP (vectors P2YN and P2YC) in tobacco leaf cells, agrobacterium-mediated; dark at 25 °C for 48 h; laser confocal microscope
T2 sequence: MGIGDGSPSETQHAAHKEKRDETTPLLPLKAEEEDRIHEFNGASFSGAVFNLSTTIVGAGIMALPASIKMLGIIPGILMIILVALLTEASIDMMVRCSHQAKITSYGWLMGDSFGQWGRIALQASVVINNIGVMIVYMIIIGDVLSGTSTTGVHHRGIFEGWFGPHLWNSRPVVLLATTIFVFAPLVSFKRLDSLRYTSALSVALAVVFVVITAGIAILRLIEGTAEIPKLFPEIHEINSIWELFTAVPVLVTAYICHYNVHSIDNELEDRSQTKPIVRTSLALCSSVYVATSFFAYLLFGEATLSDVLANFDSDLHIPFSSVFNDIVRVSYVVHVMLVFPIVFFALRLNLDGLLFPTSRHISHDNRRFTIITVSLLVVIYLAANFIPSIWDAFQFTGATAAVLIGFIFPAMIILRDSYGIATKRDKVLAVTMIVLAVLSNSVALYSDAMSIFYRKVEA

[3] = target: HvANT2 fused with the N-terminal fragment of YFP (Hordeum vulgare L. var. nudum Hook. f. (Qingke)); assay: as above

binding [1]: binds
Molecule: HvWD40-140-AD

binding [2]: binds
Molecule: HvWD40-140 fused with the C-terminal fragment of YFP

binding [3]: binds
B1: HvANT1 fused with the C-terminal fragment of YFP (protein, UniProt J7QK62 1-459)
chain: MGIGDGSPSETQHAAHKEKRDETTPLLPLKAEEEDRIHEFNGASFSGAVFNLSTTIVGAGIMALPASIKMLGIIPGILMIILVALLTEASIDMMVRCSHQAKITSYGWLMGDSFGQWGRIALQASVVINNIGVMIVYMIIIGDVLSGTSTTGVHHRGIFEGWFGPHLWNSRPVVLLATTIFVFAPLVSFKRLDSLRYTSALSVALAVVFVVITAGIAILRLIEGTAEIPKLFPEIHEINSIWELFTAVPVLVTAYICHYNVHSIDNELEDRSQTKPIVRTSLALCSSVYVATSFFAYLLFGEATLSDVLANFDSDLHIPFSSVFNDIVRVSYVVHVMLVFPIVFFALRLNLDGLLFPTSRHISHDNRRFTIITVSLLVVIYLAANFIPSIWDAFQFTGATAAVLIGFIFPAMIILRDSYGIATKRDKVLAVTMIVLAVLSNSVALYSDAMSIFYRKVEA

From article PMC10074677
